Results reported in PMC10163288.
This is one part of the list.

B1: il2ra_site2_3nfp_normal_mot_HHH_b2_05281_000000198_0001_39_56_H_._HHH_b2_00233_0001_0000200021_0000001_0 (protein)
chain: SSSSSDEIEEEVRELLEEAEKITDPRELERVLARALRLAYEARDSELFYLVAEVAFKLASSSSSS
B2: il2ra_site2_2erj_sap_19_mot_188d01929fb044e3cb8d3ddba1fb93a8_0001_1_000000115_0001_1_15_H_._HHH_b1_02810_0001_0000400004_0000001_1_0001 (protein)
chain: SSSSSDREEAWERVAELLAQALEATDPEEHRELLEEAKELAEEYNDPFLQRYIEYVEESHSSSSS
B3: il2ra_site2_2erj_sap_21_mot_HHH_b1_05650_000000005_0001_42_56_H_._HHH_b1_05129_0001_0000500029_0000001_0_0001 (protein)
chain: SSSSSEEIRRLYELLVEILRALFEGDEELVEELLEEAEKLARELDSENVKEALELLEKRLHSSSS
B4: il2ra_site1_3nfp_sap_14_mot_d9cc8bee132a485d0ac603caa35b40b0_0001_000000001_0001_14_29_H_._HHH_b1_03760_0001_0000500006_0000001_0_0001_af2pred_0001_af2pred_swap … (protein)
chain: SSSSDDEVYKRVHELLEEALRLAFNGNPEEAREVLEEAKELAEELNDPFLRRAVEKFERTSSSSS
B5: il2ra_site1_3nfp_normal_mot_eb5a5eebac1e5153f932cc6c3f4b2787_0001_af2_000000100_0001_18_33_H_._HHH_b2_06718_0001_0000400018_0000001_0_af2pred_0001_af2pred_swapp … (protein)
chain: SSSSSDVEEEVRELLEEAEQISDPREAQELLREARKLARERNDPELRRLVEEVLRKLAKSSSSSS
B6: il2ra_site1_1z92_sap_7_mot_54e474eed2d0515e81978198f0f96ec2_0001_000000202_0001_15_30_H_._321007649576c6d16d41e547348c2159_0001_0001_0000100011_0000001_0_0001 (protein)
chain: GEEEAEELLKKAGLPPRAIKWLLELLKSAARTNNPRQLEFLLQFIESLVGDPELAREVVELIERE
B7: il2ra_site2_2erj_normal_mot_HHH_b1_06542_af2_000000257_0001_1_17_H_._HHH_b1_08512_af2_0001_0000100007_0000001_0 (protein)
chain: SSSSDETEKALEEFAEEAFENNDRAYLRLLERFLRRTLHVSGDPRIERLLELVEELLERLKSSSS
B8: il2ra_site2_2erj_sap_21_mot_098419f8c790fd6be31b71e918b1b3ba_0001_1_000000064_0001_16_32_H_._HHH_b1_01372_0001_0000200009_0000001_0_0001 (protein)
chain: SSSSSDELHRAYELANILLHLVARNDREEFEEISEEFRELVERLQSENAREILEALERLLSSSSS
B9: il2ra_site2_2erj_sap_25_mot_HHH_b2_02941_af2_000000183_0001_1_17_H_._2bd1b0f3045d084678c76d87b19d0498_0001_0001_0000700033_0000001_0_0001 (protein)
chain: SSSDRERVEELVEEIEELLEEGNPREAIKLATEILELVEEYRDPELHKLAWEALELLMELGSSSS
B10: il2ra_site1_2b5i_normal_mot_22370d59370c406a0c205a431f537cfa_0001_af2_000000141_0001_1_31_H_._HHH_b2_04268_af2_0001_0000400016_0000001_0_af2pred_dldesign_0_af2p … (protein)
chain: SSSSSKEQAKEVSDVIEELVEELGLSDDDYAKLSRLAVELLYKGVSVEEIKERLREEALRLSSSS
B11: il2ra_site1_2b5i_sap_20_mot_HHH_b2_05316_000000083_0001_20_36_H_._HHH_b1_08114_0001_0000100004_0000001_0_0001_af2pred_dldesign_0_af2pred (protein)
chain: SSSSDAAFDEIDELFKKAEEVRRQGKKEETRKLLEEAVKVAEAANDEKAVKQLKYLLENLSSSSS
B12: il2ra_site2_2erj_normal_mot_HHH_b1_06697_000000025_0001_41_54_H_._HHH_eva_0027_0001_0000100002_0000001_0 (protein)
chain: SSSEESEEAEELIEEIAKRLGLDPLAVRFARLTFEDQLENGASPEEALKVAEEALREILEAKSSS
B13: il2ra_site1_1z92_sap_10_mot_HHH_b1_06022_000000044_0001_1_18_H_._HHH_b2_01597_0001_0000700039_0000001_0_0001 (protein)
chain: SSSSDEEHRKRFEELAEIAEELGSEFLARQIELKLERYERAGDPELLRAAERLVEDMKRVWSSSS
B14: il2ra_site2_2erj_sap_24_mot_66c2fca85847babee3b8944584cfd08f_0001_1_000000232_0001_16_30_H_._595119ead38f9ce12e857540ce41a9a5_0001_1_af2_0001_0000200009_0000001 … (protein)
chain: SSSSDAQELAREVFEQIHRLFKEGDREEIEELTERVRRELEELGDPHAAEAIERAARFALSSSSS
B15: il2ra_site2_2erj_normal_mot_HHH_b1_02230_000000024_0001_20_37_H_._HHH_b1_04356_0001_0000400014_0000001_0 (protein)
chain: SSSSDREEVERLLEELEEAVERNDFSLFLKLAREILELILEIGDDRLAELLNRLSKLAMHSSSSS
B16: il2ra_site1_3nfp_sap_8_mot_HHH_b1_04221_000000040_0001_40_56_H_._16d56542c9725820401ab7c11c235cbe_0001_0001_0000300014_0000001_0_0001 (protein)
chain: SSSSNEAAREATELMREIRRLLKEGNPEEARKLLEELEELAERNNDPVLKWLVRQFEESINSSSS
B17: il2ra_site2_2erj_sap_17_mot_HHH_b2_02500_af2_000000175_0001_19_35_H_._HHH_b2_04242_af2_0001_0000200003_0000001_0_0001 (protein)
chain: SSSSLREVYEVANEATHLLANGNPEEAEKLLEELLEELKRRGDESAFKLVEELLKTVEHISSSSS
B18: il2ra_site1_2b5i_normal_mot_HHH_b2_04910_000000118_0001_1_19_H_._HHH_b1_05812_af2_0001_0000100003_0000001_0_af2pred_dldesign_0_af2pred (protein)
chain: SSSSSPAAEEARRLFEAANEAKAAGDDAGATALLEEALRLAEAAGNAVLARLIRRALESLSSSSS

These binders were tested against il2ra, P01589 (assay: yeast display titration).

Apparent Kd, inactive:
B1 no binding seen
B2 no binding seen
B3 no binding seen
B4 no binding seen
B5 no binding seen
B6 > 1340 nM
B7 no binding seen
B8 no binding seen
B9 no binding seen
B10 no binding seen
B11 no binding seen
B12 no binding seen
B13 no binding seen
B14 no binding seen
B15 no binding seen
B16 no binding seen
B17 no binding seen
B18 no binding seen

No new results follow: an excerpt of the list.
Apparent Kd, inactive:
B9 no binding seen
B10 no binding seen
B11 no binding seen
